{"source": "paper PMC7862700", "note": "The list shows a part of the results, in another mix than the full data. At the low end of the ranking, values are background and their order means little."}
{"biological_target": "SPI1 (UniProt P17947)", "experiment": "DAPPL (digital affinity profiling via proximity ligation, sequencing)", "conditions": "10 mM Tris-HCl pH 7.5, 50 mM NaCl, 1 mM DTT, 4% glycerol, room temperature, 30 min; GST-TFs on glutathione beads, 16-mer random dsDNA library, 0.1% …; high values mean tight binding; double strand, one strand shown; scale: fold enrichment (6-mer frequency, TF over GST control)"}
{"sequence": "TAGACC", "binding signal": 0.82}
{"sequence": "GAGGTG", "binding signal": 0.452}
{"sequence": "GCTGTG", "binding signal": 0.621}
{"sequence": "TGCGAG", "binding signal": 0.928}
{"sequence": "CCACGG", "binding signal": 0.848}
{"sequence": "GAGGCA", "binding signal": 0.447}
{"sequence": "GCCAGT", "binding signal": 0.298}
{"sequence": "CGTCGG", "binding signal": 0.415}
{"sequence": "CGGCGG", "binding signal": 0.589}
{"sequence": "GGACAC", "binding signal": 0.754}
{"sequence": "GGGGTG", "binding signal": 0.655}
{"sequence": "GGGCGG", "binding signal": 0.404}
{"sequence": "AGGACG", "binding signal": 0.45}
{"sequence": "GATCGT", "binding signal": 0.417}
{"sequence": "TCGTAG", "binding signal": 0.802}
{"sequence": "GCGGTA", "binding signal": 0.704}
{"sequence": "GGGACT", "binding signal": 0.622}
{"sequence": "GGCAGA", "binding signal": 0.625}
{"sequence": "ATAGGA", "binding signal": 0.854}
{"sequence": "GCGGTC", "binding signal": 0.679}
{"sequence": "TCCAGG", "binding signal": 0.812}
{"sequence": "CACGAG", "binding signal": 0.828}
{"sequence": "GTGAAC", "binding signal": 0.852}
{"sequence": "GCATGT", "binding signal": 0.708}
{"sequence": "GACACG", "binding signal": 0.642}
{"sequence": "ACAGCG", "binding signal": 0.754}
{"sequence": "CGCCAG", "binding signal": 0.659}
{"sequence": "AGCCGA", "binding signal": 0.776}
{"sequence": "TGGGTC", "binding signal": 0.655}
{"sequence": "GATCCG", "binding signal": 0.916}
{"sequence": "GATTGG", "binding signal": 0.84}
{"sequence": "AGGACA", "binding signal": 0.805}
{"sequence": "TACCGT", "binding signal": 0.661}
{"sequence": "AGACGG", "binding signal": 0.332}
{"sequence": "CAGCAG", "binding signal": 0.787}
{"sequence": "CAGTTG", "binding signal": 0.477}
{"sequence": "GAGGGT", "binding signal": 0.547}
{"sequence": "GATCGC", "binding signal": 0.786}
{"sequence": "CTGAGT", "binding signal": 0.616}
{"sequence": "CGTGGA", "binding signal": 0.503}
